No constants are given. Whether binding was seen depends on the method and setting. Binding can be weak; no strength is given. For some assays here: Sequences can lack the tags named with a protein.
What was measured:
[1] = molecular target: T1, CsHydr1^Δsp in pGBKT7 (hydrophobin CsHydr1 without its signal peptide) (Colletotrichum siamense); assay: two-hybrid; pGBKT7 and pGADT7 plasmids co-transformed into yeast Y2H; growth on SD/-Trp-Leu-His-Ade plates, 30 °C, 3 d
T1 sequence: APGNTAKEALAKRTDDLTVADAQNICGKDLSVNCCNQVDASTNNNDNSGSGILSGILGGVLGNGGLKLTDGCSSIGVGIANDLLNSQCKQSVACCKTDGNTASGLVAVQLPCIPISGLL

[2] = molecular target: His-CsCap20 fusion protein (from pET32a-CsCap20) (Colletotrichum siamense); assay: pull-down; His pull-down of His-CsCap20 with GST-CsHydr1, western blot; as described in ref. 23; both purified

Molecule: CsCap20 in pGADT7 (lipid droplet-coating protein CsCap20, whole) (Colletotrichum siamense)
- binding [1]: binds

B1: GST-CsHydr1 fusion protein (from pGEX-6p-CsHydr1^Δsp) (domain or fragment, UniProt A0A6G6VYL3 20-138)
chain: T1 sequence
- binding [2]: binds
